Measurements: paper PMC9974436
Results are given in words; binding and its absence hold for the method and conditions named. In cells and extracts the contact can be indirect. Some binding calls cover weakened binding; strength is not graded here. For some of these results: Tags and fused reporters may be left off the sequences shown.

B1: endogenous OSTC of HEK293T cells (protein, UniProt Q9NRP0 1-149)
chain: METLYRVPFLVLECPNLKLKKPPWLHMPSAMTVYALVVVSYFLITGGIIYDVIVEPPSVGSMTDEHGHQRPVAFLAYRVNGQYIMEGLASSFLFTMGGLGFIILDRSNAPNIPKLNRFLLLFIGFVCVLLSFFMARVFMRMKLPGYLMG
B2: endogenous TMED10 of HEK293T cells (protein, UniProt P49755 32-219)
chain: ISFHLPINSRKCLREEIHKDLLVTGAYEISDQSGGAGGLRSHLKITDSAGHILYSKEDATKGKFAFTTEDYDMFEVCFESKGTGRIPDQLVILDMKHGVEAKNYEEIAKVEKLKPLEVELRRLEDLSESIVNDFAYMKKREEEMRDTNESTNTRVLYFSIFSMFCLIGLATWQVFYLRRFFKAKKLIE
B3: Izumo sperm–egg fusion 1 (IZUMO1), Q9D9J7 22-397 (protein)
chain: CIKCDQFVTDALKTFENTYLNDHLPHDIHKNVMRMVNHEVSSFGVVTSAEDSYLGAVDENTLEQATWSFLKDLKRITDSDLKGELFIKELLWMLRHQKDIFNNLARQFQKEVLCPNKCGVMSQTLIWCLKCEKQLHICRKSLDCGERHIEVHRSEDLVLDCLLSWHRASKGLTDYSFYRVWENSSETLIAKGKEPYLTKSMVGPEDAGNYRCVLDTINQGHATVIRYDVTVLPPKHSEENQPPNIITQEEHETPVHVTPQTPPGQEPESELYPELHPELYPELIPTVAQNPEKKMKTRLLILLTLGFVVLVASIIISVLHFRKVSAKLKNASDEVKPTASGSKSDQSLSQQMGLKKASQADFNSDYSGDKSEATEN
B4: equatorin (EQTN) (protein, UniProt Q9D9V2 21-337)
chain: QPIVGQEPGVTLSDEEQYYADEENNTDGNSVALHKLEENEMDTPANEKTGNYYKDIKQYVFTTPNIKGSEVSVTATTNLEFAVKKNYKASKPTASGEEEKPSESSRKTSTPNIPAFWTILSKAVNETAVSMDDKDQFFQPIPASDLNATNEDKLSELEEIKLKLMLGISLMTLVLLIPLLIFCFATLYKLRHLRDKSYESQYSINPELATLSYFHPTEGVSDTSFSKSADSNSYWVHNSSEMRRSRTRRSKSKPMDFSAGSNQTVLTDESSFLPPEETRFLLPEEPGKELIVERGPMQAMNEIDAQLLLNKEGSPSN

What was measured:
[1] = molecular target: T1, 1700029I15Rik-3 × FLAG (mouse) (UniProt Q8CF31); assay: co-IP; lysates of HEK293T cells transiently expressing 1700029I15Rik-3 × FLAG; antibody-conjugated magnetic beads; SDS-PAGE and Western blot of endogenous partners
T1 sequence: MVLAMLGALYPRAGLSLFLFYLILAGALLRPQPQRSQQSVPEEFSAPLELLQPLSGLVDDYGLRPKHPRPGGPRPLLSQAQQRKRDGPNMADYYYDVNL

[2] = molecular target: T2, 1700029I15Rik (mouse (endogenous in testis)), Q8CF31; assay: co-IP; co-IP from mouse testes and Western blot; settings: remark: other sources report otherwise
T2 chain: T1 sequence

[3] = molecular target: T3, 1700029I15Rik (mouse (endogenous in testis)) (UniProt Q8CF31); assay: co-IP; co-IP from mouse testes and Western blot
T3 sequence: T1 sequence

Binder	binding [1]	also measured
B1	binds	–
B2	no binding	–
B3	–	binding [2]: no binding
B4	–	binding [3]: no binding
